# Experimental data as given in PubChem BioAssay AID504467 (National Center for Advancing Translational Sciences (NCATS), 2011).
# Hit rate of the full screen: of about 330,000 compounds, about 7,700 (2.3%) were called active. This list was built around the results that the source calls inconclusive (neither active nor inactive); the mix of calls is not that of the screen. Calls follow the shape of the dose curve; as a rule, active = well fitted inhibition curve with a large enough effect; inconclusive = small, poorly fitted or top-dose-only effect, or effect the other way; inactive = flat fitted curve, though single readings scatter. Potencies beside an inconclusive call are fits to weak or partial responses and may not hold up.
# Test: qHTS screen for small molecules that inhibit ELG1-dependent DNA repair in human embryonic kidney (HEK293T) cells expressing luciferase-tagged ELG1; also: nearly all actives have a fitted effect of over 55% in size
# Conditions: HEK293T ELG1-luciferase reporter, luminescence, 16 h, DNA damage induced by 5-fluorouridine; activity change, negative = inhibition: at 46.1 µM (top of the series)
# Procedure, shortened: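 Step one: seed 2,000 cells per well. Step two: pin-transfer compound or DMSO alongside 5-fluorouridine. Step three: incubate 16 hr, 37 °C, 5% CO2. Step four: add ONE-Glo, wait 30 min, read luminescence.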
# % is scaled to controls: 0 for no effect and ±100 for the full control effect; potency is read from the fitted curve at half-maximal effect.
SMILES,Potency,"activity change, negative = inhibition"
O=C(NC(=S)NCc1ccccc1)c1ccccc1[N+](=O)[O-],inactive,–
COc1ccc(-c2nc3cccc(C)n3c2NCc2ccco2)cc1OC,"inconclusive: 18.4 µM [inhibitor, single point]",–
COc1ccc(/C=N/NC(=O)CSc2n[nH]c(=O)[nH]c2=O)cc1,"inconclusive: 0.259 µM [inhibitor, single point]",–
Cc1ccc2c(C)cc(=S)[nH]c2c1,inactive,–
COc1ccc(F)cc1C(=O)C1CCCN(Cc2c[nH]c3ccccc23)C1 (centres undefined),inactive,–
Cc1ccc2nc(N(CCN(C)C)C(=O)c3ccc4ccccc4c3)sc2c1,inactive,–
Cc1ccc(/C=C2/SC(=O)NC2=S)o1,inactive,–
Cc1ccc(Nc2nc(N)nc(CSC(=S)N3CCOCC3)n2)c(C)c1,"inconclusive: 18.4 µM [activator, partial curve]",–
CCCCc1ccc(NC(=O)CSC2=C(C#N)C(c3ccco3)C3=C(CCCC3=O)N2)cc1 (centres undefined),active: 18.4 µM,–
CCOC(=O)C1=CC[C@H]2c3c(c4ccccc4n3C)C(=O)C1N2Cc1ccccc1,"inconclusive: 10.3 µM [activator, partial curve, poor fit]",–
C=CCn1c(CSc2nc3ccccc3s2)nnc1SCC(=O)NCc1ccco1,inactive,–
O=C(N/N=C/c1cccs1)c1ccc2ccccc2c1,"inconclusive: 9.2 µM [activator, partial curve]",–
O=C(CNCc1cccs1)Nc1cc(S(=O)(=O)N2CCCC2)ccc1Cl,active: 16.4 µM,–
Cc1ccccc1NC(=O)c1ccc(Nc2c([N+](=O)[O-])cc([N+](=O)[O-])c3ccccc23)cc1,active: 18.4 µM,–
CCOC(=O)N1CCN(C(=O)c2ccc(C#CC3(O)CCCCC3)cc2)CC1,"inconclusive: 9.2 µM [activator, partial curve, poor fit]",–
CC(C)(C)c1ccc(C(=O)NCc2nnc(SCC(=O)NCc3ccco3)o2)cc1,inactive,–
Cc1nn(C)c(C)c1S(=O)(=O)N(CC(=O)N1CCc2ccccc2C1)c1ccc(C(C)C)cc1,"inconclusive: 29.1 µM [inhibitor, single point]",–
CC1(C)CC(N2CCCCC2)=CC(=[N+]2CCCCC2)C1,"inconclusive: 1.46 µM [inhibitor, partial curve, poor fit]",–
COc1ccc(NS(=O)(=O)c2ccc(Oc3c(C#N)cccc3C#N)cc2)cc1,active: 2.31 µM,–
Cn1c(=O)n(CC(=O)NCC2CCCO2)c(=O)c2c3c(sc21)CCCC3 (centres undefined),inactive,–
CCCCN(C)C(=O)c1ccc2c(c1)N(CC)C(=O)c1ccccc1S2=O (centres undefined),"inconclusive: 7.3 µM [activator, partial curve, poor fit]",–
Cn1cc(C=C2C(=O)CC(C)(C)CC2=O)c2ccccc21,"inconclusive: 18.4 µM [activator, partial curve, poor fit]",–
CCOC(=O)CC(NC(=O)c1cccc2c1C(=O)N(Cc1cccnc1)C2)c1ccc(OCC)c(OC)c1 (centres undefined),inactive,–
COc1ccccc1CNCC(=O)Nc1ccc(C#N)cc1,"inconclusive: 29.1 µM [inhibitor, single point]",–
COc1cc(C2NC(=O)CCC2[N+](=O)[O-])c(OC)cc1Br (centres undefined),inactive,–

SMILES,Potency,"activity change, negative = inhibition"
CCc1ccc2nc(Nc3nc(COC)cc(=O)[nH]3)nc(C)c2c1,inactive,–
Nc1cc(=O)[nH]c(SCCSc2ccc(F)cc2)n1,inactive,–
CC(OC(=O)c1cccc(N(C)C)c1)C(=O)N1CCc2ccccc2C1 (centres undefined),"inconclusive: 32.6 µM [inhibitor, single point]",–
Cc1cccnc1NC(=O)CCNC(=O)c1ccc(Cl)cc1,inactive,–
C=CCN1C(=O)CSc2ccc(C(=O)NC(C)c3ccccc3)cc21 (centres undefined),inactive,–
CC(C)(C)NC(=O)c1ccc(C(=O)NC(C)(C)C)cc1,inactive,–
O=C(NC(=S)Nc1ccc2[nH]c(=O)[nH]c2c1)c1cncc(Br)c1,inactive,–
O=C(NCC(c1ccco1)N1CCc2ccccc21)C(=O)Nc1ccccc1 (centres undefined),inactive,–
CCN(CC)C(=O)c1sc(NC(=O)c2cccc([N+](=O)[O-])c2)c(C#N)c1C,inactive,–
COc1ccc2nc(NC(=O)CN3CCN(C)CC3)sc2c1,"inconclusive: 18.4 µM [activator, single point]",–
COc1ccc(Cl)cc1NC(=O)CN(C)C(=O)c1ccc(-n2nc(C)cc2C)cc1,"inconclusive: 23.1 µM [inhibitor, partial curve]",–
O=C(Nc1ccc(F)cc1)N(Cc1ccco1)Cc1cc2cc3c(cc2[nH]c1=O)OCO3,active: 23.1 µM,–
Cn1cc(CNC(=O)c2cc(-c3ccccc3)nc3ccc(Br)cc23)cn1,inactive,–
COc1ccc(C)cc1NC(=O)CN1C(=O)COc2ccc(S(=O)(=O)N3CCC(C)CC3)cc21,inactive,–
OC[C@@H]1CCCN1Cc1nc(-c2cccs2)no1,"inconclusive: 16.4 µM [activator, single point]",–
Cc1cc(NC(=O)CCN2CCN(C)CC2)ccc1Br,inactive,–
Cc1ccc(C(=O)N(Cc2nnc(-c3ccc(Cl)cc3)o2)C2CC2)o1,"inconclusive: 20.6 µM [activator, single point]",–
O=C(Nc1ccc(N2CCOCC2)cc1)c1ccc2nc(-c3ccco3)c(-c3ccco3)nc2c1,"inconclusive: 5.17 µM [inhibitor, single point]",–
CC(C(=O)N1CCOCC1)N1C(=O)C2C3C=CC(C4CC34)C2C1=O (centres undefined),inactive,–
CC(C)C(=O)N1CCc2cc(-c3csc(N)n3)ccc21,"inconclusive: 32.6 µM [activator, partial curve, poor fit]",–
CCOc1ccccc1OCCCC(=O)Nc1ccc(Cl)c(S(=O)(=O)N2CCOCC2)c1,"inconclusive: 17.8 µM [inhibitor, partial curve]",–
COc1ccc2nc(SCC(=O)Nc3ccc4sc(C)nc4c3)c(C#N)cc2c1,"inconclusive: 11.6 µM [inhibitor, partial curve]",–
COc1ccc(OCC(=O)Nc2sc3c(c2C(=O)NCC2CCCO2)CCC3)cc1 (centres undefined),active: 16.4 µM,–
CCn1c2ccccc2c2cc(CN3CCN(S(C)(=O)=O)CC3)ccc21,"inconclusive: 16.4 µM [inhibitor, partial curve, poor fit]",–
CC1CCCC(NC(=O)c2ccc3c(=O)n(CC4CCCO4)c(=O)[nH]c3c2)C1C (centres undefined),"inconclusive: 18.4 µM [inhibitor, partial curve]",–

# Quoted at random: four compounds from above, in no set order.
SMILES,Potency,"activity change, negative = inhibition"
COc1ccc(Cl)cc1NC(=O)CN(C)C(=O)c1ccc(-n2nc(C)cc2C)cc1,"inconclusive: 23.1 µM [inhibitor, partial curve]",–
O=C(NC(=S)Nc1ccc2[nH]c(=O)[nH]c2c1)c1cncc(Br)c1,inactive,–
O=C(Nc1ccc(N2CCOCC2)cc1)c1ccc2nc(-c3ccco3)c(-c3ccco3)nc2c1,"inconclusive: 5.17 µM [inhibitor, single point]",–
CC(C(=O)N1CCOCC1)N1C(=O)C2C3C=CC(C4CC34)C2C1=O (centres undefined),inactive,–

# One compound at a time, from the list above.
# `C=CCN1C(=O)CSc2ccc(C(=O)NC(C)c3ccccc3)cc21` (centres undefined) is listed as Potency: inactive
# `CC(C(=O)N1CCOCC1)N1C(=O)C2C3C=CC(C4CC34)C2C1=O` (centres undefined) is listed as Potency: inactive

# The listing continues.

SMILES,Potency,"activity change, negative = inhibition"
CCc1ccc(Nc2nnc(SCC(=O)NC(=O)CN3CCCC3=O)s2)cc1,"inconclusive: 23.1 µM [activator, single point]",–
Cc1nn(CCOc2ccccc2)c(=O)n1-c1ccccc1,"inconclusive: 20.6 µM [activator, partial curve]",–
COCCNC(=O)Cn1cc(S(=O)(=O)N2CCN(c3ccccc3F)CC2)c2ccccc2c1=O,inactive,–
CCOc1ccc(Br)cc1/C(C)=N\NC1=NCCN1,"inconclusive: 2.59 µM [inhibitor, full curve]",–
COc1ccccc1C(=O)Nc1ccc(S(=O)(=O)N2CCOCC2)cc1,inactive,–
CCCNC(=O)Cn1cnc2sc(C(=O)N3CCCC(C(=O)OCC)C3)c(C)c2c1=O (centres undefined),–,inconclusive: 5.56% [activator]
CC(=O)c1cccc(NC(=O)c2ccc(N(Cc3ccccc3)S(C)(=O)=O)cc2)c1,"inconclusive: 20.6 µM [inhibitor, single point]",–
Cc1ccc(C)c(S(=O)(=O)N2CCN(CC(=O)Nc3sccc3C#N)CC2)c1,"inconclusive: 29.1 µM [inhibitor, single point]",–
COc1ccc(C(CC(=O)c2ccccc2)C2CCCCC2=O)cc1 (centres undefined),inactive,–
O=C(Nc1ccc(OCc2ccccc2)cc1)c1cccnc1,"inconclusive: 9.2 µM [activator, partial curve]",–
CC(C)CCn1c(=O)c2sccc2n2c(CCCC(=O)N3CCN(c4ccccn4)CC3)nnc12,inactive,–
COc1cc(NC(=O)c2ccnnc2)cc(C(=O)Nc2cccc(C(F)(F)F)c2)c1,inactive,–
O=C(Nc1ccc(F)cc1F)c1ccccc1NC(=O)C1CC=CCC1C(=O)O (centres undefined),inactive,–
O=C(NCc1ccc2c(c1)OCO2)Nc1ccc([N+](=O)[O-])cc1,"inconclusive: 16.4 µM [inhibitor, partial curve, poor fit]",–
COc1ccc2nc(SCC(=O)N(C)CC(=O)Nc3ccc(F)cc3)[nH]c2c1,inactive,–
Cc1c(C(=O)N2CCC2)oc2ccc(Br)cc12,"inconclusive: 9.2 µM [activator, single point]",–
CCCOc1ccc(C2NC(=S)NC(c3ccccc3)=C2C(=O)Nc2ccc(C)cc2)cc1OC (centres undefined),inactive,–
COc1cc(/C=N/Nc2nc(C)cc(=O)[nH]2)ccc1OC(=O)c1cccnc1,"inconclusive: 18.3 µM [activator, partial curve, poor fit]",–
CCOC(=O)c1c(-c2ccc(OCC)cc2)csc1NC(=O)CCN1C(=O)c2ccccc2C1=O,active: 11.6 µM,–
CCN1C(=O)[C@@H]2Cc3c([nH]c4ccccc34)C(c3cc(OC)c(OC)c(OC)c3)N2C1=S (some centres undefined),"inconclusive: 29.1 µM [inhibitor, single point]",–
COc1ccc(/C=N/NC(=O)CNC(=O)COc2ccccc2)cc1,"inconclusive: 16.4 µM [activator, partial curve, poor fit]",–
COc1ccc2cc(/C(C)=N/NC(=O)C3CC3)ccc2c1,"inconclusive: 9.2 µM [activator, partial curve]",–
N/C(Cc1ccc(Cl)cc1Cl)=N\OC(=O)c1ccccc1F,"inconclusive: 23.1 µM [activator, single point]",–
Nc1nnc(SCc2cc3c(cc2Cl)OCO3)s1,"inconclusive: 13 µM [activator, partial curve, poor fit]",–
